{"source": "PubChem BioAssay AID602196 (INSERM, 2012)", "assay": "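Modifiers of cisplatin sensitivity in A549 cells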", "cell system": "human A549 lung cancer cells", "reagents": "siRNA pair against human genes", "time to read-out": "48 h transfection before cisplatin; time from cisplatin to read-out not stated", "conditions": "cisplatin at a dose killing half of control-siRNA cells; exact dose and duration not given", "detection": "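Shift in cisplatin death relative to control siRNA, from -50 (all cells die) to +50 (no cells die); siRNAs harmful on their own scored 0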", "reading the numbers": "two-siRNA summed score (-2 to +2): higher = both siRNAs protect from cisplatin killing; -2 means both sensitise; mean protection from cisplatin (shift in death): higher = protection from cisplatin killing", "rule for the call": "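siRNAs harmful alone (LDH or WST-1) get 0; others get +1 for less and -1 for more cisplatin killing; genes are active when the two siRNAs give the same sign, summing to ±2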", "calls": "active = both siRNAs shift cisplatin killing the same way; inactive = no consistent shift, or siRNA harmful alone", "note": "This is one part, drawn at random, of about 23,000 deposited reagents. 455 of them (2%) were called active. 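Active includes both protection and sensitisation; some change values fall well beyond the stated -50 to +50 range.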 Further read-outs or replicates are left out here. The record does not give: the amount of reagent."}
{"Target gene": "RCBTB1 (RCC1 and BTB domain containing protein 1)", "two-siRNA summed score (-2 to +2)": 0, "mean protection from cisplatin (shift in death) (%)": 3.6, "outcome": "inactive"}
{"Target gene": "BRCC3 (BRCA1/BRCA2-containing complex subunit 3)", "two-siRNA summed score (-2 to +2)": 0, "mean protection from cisplatin (shift in death) (%)": 7, "outcome": "inactive"}
{"Target gene": "DDX3Y (DEAD-box helicase 3 Y-linked)", "two-siRNA summed score (-2 to +2)": 0, "mean protection from cisplatin (shift in death) (%)": 7.4, "outcome": "inactive"}
{"Target gene": "BCKDHA (branched chain keto acid dehydrogenase E1 subunit alpha)", "two-siRNA summed score (-2 to +2)": 0, "mean protection from cisplatin (shift in death) (%)": 3.3, "outcome": "inactive"}
{"Target gene": "DYNAP (dynactin associated protein)", "two-siRNA summed score (-2 to +2)": 1, "mean protection from cisplatin (shift in death) (%)": 13, "outcome": "inactive"}
{"Target gene": "NPB (neuropeptide B)", "two-siRNA summed score (-2 to +2)": 0, "mean protection from cisplatin (shift in death) (%)": 0.8, "outcome": "inactive"}
{"Target gene": "G6PC3 (glucose-6-phosphatase catalytic subunit 3)", "two-siRNA summed score (-2 to +2)": 0, "mean protection from cisplatin (shift in death) (%)": 8.9, "outcome": "inactive"}
{"Target gene": "LOC440709", "two-siRNA summed score (-2 to +2)": 0, "mean protection from cisplatin (shift in death) (%)": 8.6, "outcome": "inactive"}
{"Target gene": "SAP30BP (SAP30 binding protein)", "two-siRNA summed score (-2 to +2)": 0, "mean protection from cisplatin (shift in death) (%)": -1.3, "outcome": "inactive"}
{"Target gene": "TNFRSF25 (TNF receptor superfamily member 25)", "two-siRNA summed score (-2 to +2)": 0, "mean protection from cisplatin (shift in death) (%)": -2.5, "outcome": "inactive"}
{"Target gene": "LOC387886", "two-siRNA summed score (-2 to +2)": 0, "mean protection from cisplatin (shift in death) (%)": 8.8, "outcome": "inactive"}
{"Target gene": "LOC440780", "two-siRNA summed score (-2 to +2)": 0, "mean protection from cisplatin (shift in death) (%)": 4.2, "outcome": "inactive"}
{"Target gene": "VPS53 (VPS53 subunit of GARP complex)", "two-siRNA summed score (-2 to +2)": 0, "mean protection from cisplatin (shift in death) (%)": 1.9, "outcome": "inactive"}
{"Target gene": "WBP4 (WW domain binding protein 4)", "two-siRNA summed score (-2 to +2)": 0, "mean protection from cisplatin (shift in death) (%)": 6.7, "outcome": "inactive"}
{"Target gene": "LOC388418", "two-siRNA summed score (-2 to +2)": 0, "mean protection from cisplatin (shift in death) (%)": 10.1, "outcome": "inactive"}
{"Target gene": "PPAN (peter pan homolog)", "two-siRNA summed score (-2 to +2)": 1, "mean protection from cisplatin (shift in death) (%)": 8.3, "outcome": "inactive"}
{"Target gene": "AMER2 (APC membrane recruitment protein 2)", "two-siRNA summed score (-2 to +2)": 1, "mean protection from cisplatin (shift in death) (%)": 12.2, "outcome": "inactive"}
{"Target gene": "SLA2 (Src like adaptor 2)", "two-siRNA summed score (-2 to +2)": 0, "mean protection from cisplatin (shift in death) (%)": 9.3, "outcome": "inactive"}
{"Target gene": "OR2J2 (olfactory receptor family 2 subfamily J member 2)", "two-siRNA summed score (-2 to +2)": 0, "mean protection from cisplatin (shift in death) (%)": 16, "outcome": "inactive"}
{"Target gene": "LOC440674", "two-siRNA summed score (-2 to +2)": 1, "mean protection from cisplatin (shift in death) (%)": 8.2, "outcome": "inactive"}
{"Target gene": "PLA2G2D (phospholipase A2 group IID)", "two-siRNA summed score (-2 to +2)": 0, "mean protection from cisplatin (shift in death) (%)": -16.1, "outcome": "inactive"}
{"Target gene": "BTN1A1 (butyrophilin subfamily 1 member A1)", "two-siRNA summed score (-2 to +2)": -1, "mean protection from cisplatin (shift in death) (%)": -8.4, "outcome": "inactive"}
{"Target gene": "SREBF2 (sterol regulatory element binding transcription factor 2)", "two-siRNA summed score (-2 to +2)": 0, "mean protection from cisplatin (shift in death) (%)": -7.2, "outcome": "inactive"}
{"Target gene": "ITM2A (integral membrane protein 2A)", "two-siRNA summed score (-2 to +2)": 0, "mean protection from cisplatin (shift in death) (%)": 1.7, "outcome": "inactive"}
{"Target gene": "CYP1B1-AS1 (CYP1B1 antisense RNA 1)", "two-siRNA summed score (-2 to +2)": 0, "mean protection from cisplatin (shift in death) (%)": 7.5, "outcome": "inactive"}
{"Target gene": "ATXN7 (ataxin 7)", "two-siRNA summed score (-2 to +2)": 1, "mean protection from cisplatin (shift in death) (%)": 9, "outcome": "inactive"}
{"Target gene": "CASP14 (caspase 14)", "two-siRNA summed score (-2 to +2)": -1, "mean protection from cisplatin (shift in death) (%)": -10.1, "outcome": "inactive"}
{"Target gene": "NCBP3 (nuclear cap binding subunit 3)", "two-siRNA summed score (-2 to +2)": 0, "mean protection from cisplatin (shift in death) (%)": -1.3, "outcome": "inactive"}
{"Target gene": "TPRX1 (tetrapeptide repeat homeobox 1)", "two-siRNA summed score (-2 to +2)": 0, "mean protection from cisplatin (shift in death) (%)": -2.4, "outcome": "inactive"}
{"Target gene": "SLC26A2", "two-siRNA summed score (-2 to +2)": 0, "mean protection from cisplatin (shift in death) (%)": 11.8, "outcome": "inactive"}
{"Target gene": "PIBF1 (progesterone immunomodulatory binding factor 1)", "two-siRNA summed score (-2 to +2)": 0, "mean protection from cisplatin (shift in death) (%)": 1.8, "outcome": "inactive"}
{"Target gene": "CDC50A (cell division cycle 50 P4-ATPase accessory subunit A)", "two-siRNA summed score (-2 to +2)": 0, "mean protection from cisplatin (shift in death) (%)": 17.3, "outcome": "inactive"}
{"Target gene": "DBR1 (debranching RNA lariats 1)", "two-siRNA summed score (-2 to +2)": 0, "mean protection from cisplatin (shift in death) (%)": -0.4, "outcome": "inactive"}
{"Target gene": "COX7B2 (cytochrome c oxidase subunit 7B2)", "two-siRNA summed score (-2 to +2)": 0, "mean protection from cisplatin (shift in death) (%)": 7.5, "outcome": "inactive"}
{"Target gene": "CACNG6 (calcium voltage-gated channel auxiliary subunit gamma 6)", "two-siRNA summed score (-2 to +2)": 0, "mean protection from cisplatin (shift in death) (%)": 0.8, "outcome": "inactive"}
{"Target gene": "ZNF695 (zinc finger protein 695)", "two-siRNA summed score (-2 to +2)": 1, "mean protection from cisplatin (shift in death) (%)": 4, "outcome": "inactive"}
{"Target gene": "INKA2 (inka box actin regulator 2)", "two-siRNA summed score (-2 to +2)": 0, "mean protection from cisplatin (shift in death) (%)": 0.4, "outcome": "inactive"}
{"Target gene": "LOC441824", "two-siRNA summed score (-2 to +2)": 0, "mean protection from cisplatin (shift in death) (%)": 2.6, "outcome": "inactive"}
{"Target gene": "COMMD4 (COMM domain containing 4)", "two-siRNA summed score (-2 to +2)": -1, "mean protection from cisplatin (shift in death) (%)": -14.4, "outcome": "inactive"}
{"Target gene": "PAFAH2 (platelet activating factor acetylhydrolase 2)", "two-siRNA summed score (-2 to +2)": 0, "mean protection from cisplatin (shift in death) (%)": 6.2, "outcome": "inactive"}

Limited to “two-siRNA summed score (-2 to +2)”, for 3 of the entries above:
BCKDHA (branched chain keto acid dehydrogenase E1 subunit alpha)	0
DYNAP (dynactin associated protein)	1
NPB (neuropeptide B)	0
